Results deposited as PubChem BioAssay AID1053208 (Peter MacCallum Cancer Centre, 2014)
Aim: 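Genes whose silencing cuts survival of bone tumour cells only with doxorubicin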 (primary screen). Cells: mouse osteosarcoma cells, early-passage culture from an engineered mouse model of fibroblastic bone tumour. Reagent: siRNA pool against mouse genes, 40 nM. Duration: about 120 h (48 h before drug, then 72 h with drug). Conditions: doxorubicin 100 nM for 72 h, roughly 30-40% inhibitory dose. Detection: 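Luminescent ATP signal taken as viability with or without 100 nM doxorubicin for 72 h; mean of two wells set against non-targeting siRNA and turned into robust z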. Direction: viability z-score with doxorubicin: higher = more viable cells under doxorubicin; viability z-score without drug: higher = more viable cells with knock-down alone. Rule for the call: 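Called active if knock-down leaves viability unchanged without drug (z within -2 to 2) but lowers it with doxorubicin (z at or under -2)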.
This is one part, drawn at random, of about 17,000 reagents tested. 788 of them (4.7%) were called active. 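Calls rest on z-score classes alone; an extra cut-off of viability at most 70% of control was not applied to them.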 A number with no mark means an inactive call. The numbers tell different reagents against one gene apart. Some reagents were tested in more than one well and are listed for each. Further read-outs or replicates are left out here.

| gene symbol | pool no. | combined z-score class | viability z-score with doxorubicin | viability z-score without drug |
| --- | --- | --- | --- | --- |
| Or8h8 (GeneID 258842) | 1 | no change with or without drug | -0.45 | 0 |
| Glra2 (GeneID 237213) | 1 | no change with or without drug | -0.11 | -1.52 |
| Efs (GeneID 13644) | 1 | no change with or without drug | 0.67 | 0.17 |
| Sgms2 (GeneID 74442) | 1 | no change with or without drug | -1.35 | 1.52 |
| Snrpd3 (GeneID 67332) | 1 | low cell count with and without drug | -7.87 | -4.22 |
| Apba2 (GeneID 11784) | 1 | no change with or without drug | 0.56 | -1.18 |
| Aff4 (GeneID 93736) | 1 | no change with or without drug | -0.11 | 1.52 |
| Or4c115 (GeneID 258902) | 1 | no change with or without drug | 1.35 | 0.17 |
| Nmral1 (GeneID 67824) | 1 | no change with or without drug | -0.9 | 0.34 |
| Tra2b (GeneID 20462) | 1 | high cell count without drug only | 1.12 | 2.36 |
| Tra2b (GeneID 20462) | 1 | no change with or without drug | 0.9 | 0.51 |
| Snx20 (GeneID 71607) | 1 | no change with or without drug | 0 | 0.51 |
| Bcl2a1a (GeneID 12044) | 1 | no change with or without drug | -1.57 | -0.67 |
| Myo1d (GeneID 338367) | 1 | no change with or without drug | 1.35 | 1.85 |
| Slc6a6 (GeneID 21366) | 1 | no change with or without drug | 0.67 | 1.01 |
| Phf23 (GeneID 78246) | 1 | no change with or without drug | 0 | 0.51 |
| Drap1 (GeneID 66556) | 1 | no change with or without drug | 1.12 | -0.84 |
| Or10q1 (GeneID 258992) | 1 | low cell count without drug only | 0.22 | -2.19 |
| Gpsm3 (GeneID 106512) | 1 | high cell count without drug only | 1.35 | 2.19 |
| Idh3a (GeneID 67834) | 1 | no change with or without drug | -1.8 | -0.51 |
| Jund (GeneID 16478) | 1 | no change with or without drug | 0.67 | -0.17 |
| Zdhhc14 (GeneID 224454) | 1 | no change with or without drug | 1.01 | 0 |
| Mbd3l2 (GeneID 234988) | 1 | low cell count without drug only | -0.45 | -2.53 |
| Nck1 (GeneID 17973) | 1 | no change with or without drug | 0.67 | 1.01 |
| Cdk15 (GeneID 271697) | 1 | no change with or without drug | 0.9 | -0.84 |
| Itga10 (GeneID 213119) | 1 | no change with or without drug | 0 | -0.84 |
| Cdh26 (GeneID 381409) | 1 | no change with or without drug | 0.9 | -0.17 |
| Col13a1 (GeneID 12817) | 1 | no change with or without drug | 0.34 | 1.52 |
| Dgat1 (GeneID 13350) | 1 | no change with or without drug | 1.24 | -0.84 |
| Wdr25 (GeneID 212198) | 1 | no change with or without drug | 0.45 | 0.51 |
| Gnai3 (GeneID 14679) | 1 | no change with or without drug | 0.34 | 1.18 |
| Mtch2 (GeneID 56428) | 1 | no change with or without drug | 0.9 | -0.17 |
| Sigirr (GeneID 24058) | 1 | high cell count without drug only | 0.67 | 2.19 |
| Uty (GeneID 22290) | 1 | no change with or without drug | -1.8 | -0.51 |
| Lama1 (GeneID 16772) | 1 | no change with or without drug | 1.69 | 1.52 |
| NRG1 | 1 | no change with or without drug | 0.67 | 0.51 |
| Ncaph2 (GeneID 52683) | 1 | no change with or without drug | 0.9 | -0.51 |
| Aimp1 (GeneID 13722) | 1 | no change with or without drug | -0.9 | -0.67 |
| Col4a4 (GeneID 12829) | 1 | no change with or without drug | -0.22 | 1.85 |
| Col4a4 (GeneID 12829) | 2 | no change with or without drug | 0.22 | 0.51 |
| Wdr74 (GeneID 107071) | 1 | no change with or without drug | 0 | -1.18 |
| Blzf1 (GeneID 66352) | 1 | no change with or without drug | 1.24 | -0.67 |
| Ltv1 (GeneID 353258) | 1 | no change with or without drug | -0.9 | 0.17 |
| Keap1 (GeneID 50868) | 1 | no change with or without drug | -0.22 | 0.51 |
| Meig1 (GeneID 104362) | 1 | no change with or without drug | -0.56 | 0.34 |
| Ccdc166 (GeneID 223648) | 1 | no change with or without drug | 0.67 | 0.51 |
| Fgfr4 (GeneID 14186) | 1 | no change with or without drug | -0.79 | 0.67 |
| Nlrp4f (GeneID 97895) | 1 | no change with or without drug | -0.11 | 0.17 |
| Zbed4 (GeneID 223773) | 1 | no change with or without drug | 0.22 | -0.84 |
| Midn (GeneID 59090) | 1 | no change with or without drug | 1.12 | 1.85 |
| Arl4a (GeneID 11861) | 1 | no change with or without drug | -0.67 | 0 |
| Bcas2 (GeneID 68183) | 1 | no change with or without drug | 0.34 | -1.35 |
| Or1f12 (GeneID 258280) | 1 | low cell count with and without drug | -2.02 | -3.2 |
| Ido2 (GeneID 209176) | 1 | no change with or without drug | -0.22 | -1.85 |
| Rfc4 (GeneID 106344) | 1 | no change with or without drug | 0 | 0.51 |
| Nob1 (GeneID 67619) | 1 | no change with or without drug | -0.11 | 0.17 |
| Tbx18 (GeneID 76365) | 1 | high cell count without drug only | -0.45 | 2.53 |
| Ildr1 (GeneID 106347) | 1 | no change with or without drug | 0.45 | 0.84 |
| Rxrg (GeneID 20183) | 1 | no change with or without drug | -0.11 | 0.34 |
| Cd70 (GeneID 21948) | 1 | no change with or without drug | -0.67 | 1.18 |
| Tti1 (GeneID 75425) | 1 | high cell count with doxorubicin only | 2.02 | 0.84 |
| Gm9975 (GeneID 327988) | 1 | no change with or without drug | -1.8 | -0.17 |
| Kri1 (GeneID 215194) | 1 | no change with or without drug | 0 | -0.84 |

Only “viability z-score with doxorubicin”, for 3 of the entries above:
Apba2 (GeneID 11784): 0.56
Aff4 (GeneID 93736): -0.11
Or4c115 (GeneID 258902): 1.35
